For the test, the target named is SP1-Flag (UniProt Q01714). The experiment in a line: co-IP; HEK-293T cells transfected with the overexpression plasmids (SP1-Flag, HDAC5-Myc, ABCB1-HA); native lysis buffer; protein A/G magnetic beads; Western blot with Flag, Myc and HA antibodies. (In general: A western blot detects proteins with antibodies after separation by electrophoresis.)

By UniProt entry, the sequences of proteins in these tests, tags left out.
UniProt Q01714: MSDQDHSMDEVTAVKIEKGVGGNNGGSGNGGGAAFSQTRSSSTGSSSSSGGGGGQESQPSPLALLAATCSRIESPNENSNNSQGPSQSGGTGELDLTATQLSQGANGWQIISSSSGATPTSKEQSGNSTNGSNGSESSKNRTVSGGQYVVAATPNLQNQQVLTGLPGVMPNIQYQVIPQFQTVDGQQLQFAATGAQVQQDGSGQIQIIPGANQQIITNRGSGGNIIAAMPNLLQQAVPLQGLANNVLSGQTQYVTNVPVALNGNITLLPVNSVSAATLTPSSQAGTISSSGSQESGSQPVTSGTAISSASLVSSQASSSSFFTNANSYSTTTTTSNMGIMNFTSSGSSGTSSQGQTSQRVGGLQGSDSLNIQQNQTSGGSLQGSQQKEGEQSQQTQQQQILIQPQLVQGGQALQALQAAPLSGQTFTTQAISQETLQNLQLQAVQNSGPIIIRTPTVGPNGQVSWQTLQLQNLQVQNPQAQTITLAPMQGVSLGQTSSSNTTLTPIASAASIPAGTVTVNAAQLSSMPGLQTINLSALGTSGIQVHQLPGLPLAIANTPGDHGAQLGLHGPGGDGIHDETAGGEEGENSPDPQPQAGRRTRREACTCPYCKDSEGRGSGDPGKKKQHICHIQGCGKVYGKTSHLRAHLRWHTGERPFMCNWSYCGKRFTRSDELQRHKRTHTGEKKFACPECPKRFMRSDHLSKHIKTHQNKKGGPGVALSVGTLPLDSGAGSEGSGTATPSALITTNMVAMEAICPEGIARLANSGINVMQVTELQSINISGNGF
UniProt P43245: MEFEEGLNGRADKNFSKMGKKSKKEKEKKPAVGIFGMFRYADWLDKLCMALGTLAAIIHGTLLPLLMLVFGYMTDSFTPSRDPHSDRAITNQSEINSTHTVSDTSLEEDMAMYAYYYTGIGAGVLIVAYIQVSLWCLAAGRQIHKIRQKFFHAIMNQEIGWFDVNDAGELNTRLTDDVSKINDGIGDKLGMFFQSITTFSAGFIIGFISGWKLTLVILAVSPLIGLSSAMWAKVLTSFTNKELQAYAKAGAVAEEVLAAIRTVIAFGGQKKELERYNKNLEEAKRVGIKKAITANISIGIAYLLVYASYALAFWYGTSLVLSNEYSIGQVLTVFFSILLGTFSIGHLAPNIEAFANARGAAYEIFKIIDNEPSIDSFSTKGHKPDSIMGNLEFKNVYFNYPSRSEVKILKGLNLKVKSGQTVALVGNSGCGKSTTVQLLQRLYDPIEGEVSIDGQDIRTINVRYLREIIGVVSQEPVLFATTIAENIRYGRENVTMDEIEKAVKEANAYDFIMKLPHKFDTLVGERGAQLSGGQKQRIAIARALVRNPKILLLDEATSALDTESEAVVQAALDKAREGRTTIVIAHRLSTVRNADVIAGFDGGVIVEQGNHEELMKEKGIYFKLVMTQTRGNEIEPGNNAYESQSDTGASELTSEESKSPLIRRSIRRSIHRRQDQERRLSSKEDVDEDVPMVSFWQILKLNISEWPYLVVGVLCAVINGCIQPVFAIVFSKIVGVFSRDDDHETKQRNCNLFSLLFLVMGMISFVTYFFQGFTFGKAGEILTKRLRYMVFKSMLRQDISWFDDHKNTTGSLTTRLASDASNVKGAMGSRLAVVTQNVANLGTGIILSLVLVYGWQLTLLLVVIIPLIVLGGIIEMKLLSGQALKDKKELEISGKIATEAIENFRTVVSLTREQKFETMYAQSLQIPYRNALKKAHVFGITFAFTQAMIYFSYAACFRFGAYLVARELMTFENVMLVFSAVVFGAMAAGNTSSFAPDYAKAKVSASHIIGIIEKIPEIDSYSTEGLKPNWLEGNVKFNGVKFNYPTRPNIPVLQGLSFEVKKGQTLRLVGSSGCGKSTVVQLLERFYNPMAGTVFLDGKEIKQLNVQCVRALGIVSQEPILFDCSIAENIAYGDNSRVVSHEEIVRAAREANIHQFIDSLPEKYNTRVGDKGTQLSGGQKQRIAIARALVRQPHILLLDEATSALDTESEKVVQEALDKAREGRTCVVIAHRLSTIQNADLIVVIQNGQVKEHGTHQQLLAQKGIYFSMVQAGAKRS

Results are given in words; binding and its absence hold for the method and conditions named. Binding seen in cells or lysates may run through a third protein. Some results given as binding are weak or reduced against the parent protein; the word gives no strength.

In the case of ABCB1-HA (from UniProt P43245 1-1277), the binding result was “binds”.
